# In PubChem BioAssay AID1347423 (Functional Genomics Laboratory (NCATS/FGL), 2020):
# Among all 52,000 sequences or so, about 210 (0.4%) were called active.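 Rule for the calls: active = gene whose silencing raises cell survival under the drug, median off-target-corrected z-score across its silencing RNAs 2 or more; inactive = the rest.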 The list shows a part of the results.
# Assay: Resistance to Poly (ADP-Ribose) Polymerase inhibitor: Gene Identification via Genome-wide siRNA Screen
# Settings: mouse BRCA2 R2336H ES cells, olaparib, CellTiter-Glo viability; stronger effect = higher value
# How it was run: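 Mouse BRCA2 R2336H ES cells were reverse-transfected with siRNA (20 nM final), treated at 48 h with 500 nM olaparib, and read by CellTiter-Glo after 72 h. Scores: MAD-based z per siRNA, median per gene, seed off-target correction.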
row,Sequence,z-score
1,GCAGAUCGAAUAAUAAGAGTT against Rbbp5,inactive: -0.261
2,GGCCUACAGCUGGAAAGAATT against Chrm1,inactive: 0.954
3,GGACAUAAAAGACUUAAAGTT against Actr8,active: 3.83
4,GCAUAUAUUCACCACUAACTT against BC067068,inactive: 0.905
5,GGAUUUCCCAAGCCUUAUUTT against Sncaip,inactive: -0.972
6,CCUUAAAAACUCGAGUAAATT against Gla,inactive: 0.205
7,GCAAAGAGAGUUCGAAUAATT against Klhl2,inactive: -0.429
8,GGCCAUGGACAAAAUGUACTT against Tcfap2a,inactive: -0.341
9,GCCACAACUCCAGAUGCCUTT against Olfr937,inactive: 0.848
10,AAUGUUGAAAACAAGAGCCTT against V1rd14,inactive: 1.38
11,GGUGAUGUAUAUUGAGUCUTT against Sdcbp2,inactive: -0.865
12,GCUCUGUGGACUUCUUGGATT against Znrf4,inactive: -0.564
13,GGCUGAAGACAAAACCUGUTT against A230102I05Rik,inactive: 1.52
14,CCAUUGCCUCACACGAGGATT against Lgals3bp,inactive: 0.956
15,GGAGUUAAAUCCCAAACACTT against C2b,inactive: 0.6
16,GGUUGGAUGCUUUCUAAGATT against Pot1,inactive: 0.673
17,GGGCUGGAAUCUAGGAAGUTT against Gpr2,inactive: -0.0856
18,GGUAUCGUAUAUGGAGAUCTT against Kif13a,inactive: 0.0524
19,CCUGAUAUACAAUCUAACCTT against Fv4,inactive: 1.24
20,CGGCAACCACAAUAUCAAUTT against Mill1,inactive: 0.311
21,CGAUGGCUCUACCAAAGGCTT against Urod,inactive: 0.117
22,GGUUUUUUUCCUGUGAAUGTT against BQ176089,inactive: -0.0104
23,CCAAUGUGUUUGCCAAUAGTT against Psph,inactive: 0.161
24,GGACAUUAUUUCUAUAUGGTT against Eif4el3,inactive: 0.651
25,GGUUGAAGAAUAGAAUGUCTT against Cda,inactive: -1.61
26,GGGAAAAUUAGAAGUCAGGTT against Dscam,inactive: 0.879

row,Sequence,z-score
1,GCUGGUUUUUGUCAUAAACTT against Olfr1316,inactive: 1.93
2,GGUUGAGUGGCAUUUUUUATT against MGC27742,inactive: -1.19
3,CCGAUUUGAUACCCUGGAATT against Tfpi,inactive: -2.41
4,GCAGCUAGCAACAUAGUAUTT against Wbscr22,inactive: -2.19
5,GGAGAAAGACAACUUCCUATT against Clecsf12,inactive: 0.778
6,GGAAGAAAGAAGAAGAGACTT against Lig1,inactive: -2.19
7,CCUCGAAAAUUUGAUACCGTT against 4930562C03Rik,inactive: -0.735
8,GGAUCGAAUCAGGAAUGAATT against Nphs1,inactive: 0.279
9,GGGCCAGUACCAGAAAGAATT against Xcl1,inactive: -1.81
10,GGACUGACCCUGUAAAGAUTT against Zfp296,inactive: -1.1
11,GGAAUGUAUGGUGAGACUUTT against Ap4e1,inactive: -0.686
12,GGCUUCAAGCUAUUCAUGATT against Dgkb,inactive: -0.444
13,GCAGCGAUAUGACAGACUCTT against Axud1,inactive: -1.06
14,GGUUCAGCAUUUUAAAGUGTT against Eif2c3,inactive: 0.809
15,GGCAAAAGAUUACAACAGATT against 1700026P10Rik,inactive: 0.979
16,GCUCUGCUCUUCUGAAGCATT against 1110033C18Rik,inactive: 0.0881
17,CUAUCAAGGGCAGUCAACUTT against Olfr1208,inactive: -1.87
18,GGGCGAAUUUAACACAGUGTT against Txnrd1,inactive: 1.14
19,GGCGAGAAACCUUUCAGAUTT against Zic4,inactive: -0.708
20,GGCAAACAGACUGAGUUUATT against Tsc2,inactive: 0.227
21,AGGAAAACGCAUAGCUUAUTT against LOC434225,inactive: -0.709
22,GGGUUUAGCUCACUGAGUATT against Tm4sf5,inactive: -0.401
23,GGAAAACGGAGAUUUGGAGTT against Es2el,inactive: 0.943
24,GGUCAUGUGAAUUUUUCUGTT against Snrp116,inactive: -3.08
25,GGGUCUGGUGUUAUAUUUGTT against C78409,inactive: 0.224
26,GGUGGACAAUCUGGUCAACTT against Mgat5,inactive: 0.288

row,Sequence,z-score
1,CCGACAUUCAACAAGAUUUTT against Mta1,inactive: 0.599
2,GGAACAUUACAAAAGCUCUTT against Slfn1,inactive: -0.715
3,CCAAAUUACUAGGUUAAAGTT against Rasgrp3,inactive: -1.15
4,GUCACUAUUAAGACACUUATT against BC024322,inactive: -0.851
5,GGACCUUGACGUACAUCAATT against BC019561,inactive: 0.62
6,GCUCGGAUUUCCUACUCACTT against Agps,inactive: 0.386
7,GGUUGAUUUAAACAUUGGATT against Pcdhgb2,inactive: 0.781
8,CCCUGACCGUUUGCUAUAUTT against LOC574530,inactive: -0.803
9,GGUCAACUGAAGAAGAACATT against Rg9mtd2,inactive: -0.389
10,GGAGAACUCUUUCAGAUUCTT against Stk36,inactive: -0.964
11,CCGCUACCUCUCGCUAUAUTT against Gpr12,inactive: -0.839
12,GUAAUCUGUCUUUCGUUGATT against Olfr957,inactive: -0.0539
13,GGACAAGCAACGUAUGUUCTT against 2610528M18Rik,inactive: 1.49
14,GGGCGAGCAGUUUGUGUUUTT against Crybb2,inactive: 0.245
15,CGAUAAGAAUCUCUUCCGCTT against BC017634,inactive: 0.642
16,CCUGAAAGUUCAAAUGUCATT against Ankrd12,inactive: -1.41
17,GGCUGUGAUGUAAAACAGATT against Gm185,inactive: 1.19
18,GCCCUUGGGAUAAUUAUUGTT against 9930019B18Rik,inactive: -0.534
19,GGAAAAGCAAGAGGAAAGATT against Ifnb1,inactive: -1.47
20,GCUAAAAAUAAACAGUCGGTT against 4933435A13Rik,inactive: 0.762
21,GGAAAACUACUGGAACUGGTT against Ifi1,inactive: 0.0555
22,GGAGCUCAUUAGCAAAUAUTT against E030002O03Rik,inactive: -2.5
23,GGCGAGUUUUAUGUCAUUGTT against Fxr1h,inactive: 0.652
24,GGAACUCUUGGAAGAAUAUTT against Katnal1,inactive: -1.64
25,CCUUCGGCAACUUUCUAUUTT against Thrap6,inactive: 0.288
26,GGUCAGGAAAUAUUCUUAATT against A630001G21Rik,inactive: -0.863

# Taken from above:
# For z-score, GGCGAGUUUUAUGUCAUUGTT against Fxr1h reads inactive: 0.652
# For z-score, GGAAAAGCAAGAGGAAAGATT against Ifnb1 reads inactive: -1.47
# For z-score, GGAGCUCAUUAGCAAAUAUTT against E030002O03Rik reads inactive: -2.5

# Two neighbouring entries already listed, quoted:
row,Sequence,z-score
11,CCGCUACCUCUCGCUAUAUTT against Gpr12,inactive: -0.839
12,GUAAUCUGUCUUUCGUUGATT against Olfr957,inactive: -0.0539

# Following part

row,Sequence,z-score
1,GAUAUACAGCAUACUCUCATT against Olfr1087,inactive: -0.717
2,CCAAUGAAACCUGCUUGGGTT against Cd200r2,inactive: -0.0211
3,CCUAUGGAGAGUAUGACUATT against Khdrbs3,inactive: 1.17
4,GGCCUGAACCUCUUUCAAGTT against Mep1a,inactive: -0.559
5,CGAGUCUUGUGGAGUUUCGTT against Spint2,inactive: -0.597
6,GGCUUCUAAGCAUACUCAGTT against D6Ertd349e,inactive: -2.21
7,GUGAUGACUGAGCUUCUAATT against Olfr1446,inactive: -1.51
8,GCUUGUUGAUCAAUAACCCTT against Cntn4,inactive: -0.00874
9,CCAACACGACGCAGGAAAUTT against Nr0b1,inactive: 1.9
10,GGGCUCACAUUGUACACACTT against D130011D22Rik,inactive: -0.224
11,GGAAAUAGAGGGAGAAUAATT against A730037C10Rik,inactive: -1.88
12,GGGAGAUGAAGAACUAUGUTT against Hmgb2,inactive: -2.56
13,GGAUUUUGACAACAUCUCCTT against Pak7,inactive: 0.0926
14,GGAGCAGCAGAAGGUUCUUTT against Olfr434,inactive: -1.29
15,GGAUGGUAGAGUUCCUUUGTT against 5830457H20Rik,inactive: 0.644
16,CGCAAAGACUUAUAUUGAGTT against AI851076,inactive: -0.859
17,GCGUUAUAGCCUCAGUGUGTT against Olfr605,inactive: 0.554
18,GGUGACAUGCUGAUUGUUGTT against 9930028C20Rik,inactive: -0.512
19,GGCCUAUGCACAACUGAAGTT against Slc6a19,inactive: -2.64
20,GGAGUGAAAUAUGGAGUUGTT against BC003479,inactive: 0.573
21,GGCCAGCGAGAGAGAGAAATT against Msgn1,inactive: -1.97
22,GGAUUAAACAAGAACAAGATT against Cnksr2,inactive: 0.525
23,GGUCGUUUCUAUGAUUGGCTT against Olfr589,inactive: -0.857
24,CCCUUAUCAUCGUCAAUAGTT against Rga,inactive: -0.761
25,GGAGAAAUUGCCUUUGAUCTT against BC027088,inactive: 0.0838
26,GCAAGCUAAUGAGCUACAATT against AA175286,inactive: -0.292
